# Experimental data reported in PubChem BioAssay AID2551 (National Center for Advancing Translational Sciences (NCATS), 2010).
# By UniProt entry, the sequences of proteins in these tests, tags left out. Where a name states a change or a piece, a line headed by the entry shows the natural chain unless it says otherwise.
# UniProt P51450: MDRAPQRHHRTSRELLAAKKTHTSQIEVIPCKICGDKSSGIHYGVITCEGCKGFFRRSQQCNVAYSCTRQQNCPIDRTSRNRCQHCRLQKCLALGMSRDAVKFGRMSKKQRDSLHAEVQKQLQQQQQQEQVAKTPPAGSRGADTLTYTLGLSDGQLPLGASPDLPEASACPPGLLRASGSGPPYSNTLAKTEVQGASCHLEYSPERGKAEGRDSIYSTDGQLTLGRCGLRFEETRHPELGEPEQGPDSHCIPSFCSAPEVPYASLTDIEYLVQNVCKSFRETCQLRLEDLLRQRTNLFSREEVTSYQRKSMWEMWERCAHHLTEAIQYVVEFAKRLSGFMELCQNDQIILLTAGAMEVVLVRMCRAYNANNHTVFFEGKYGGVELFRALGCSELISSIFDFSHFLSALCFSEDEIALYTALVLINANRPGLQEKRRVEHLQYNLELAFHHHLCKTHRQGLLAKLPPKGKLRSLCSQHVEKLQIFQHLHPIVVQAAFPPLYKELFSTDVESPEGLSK
# The whole screen tested about 310,000 compounds, of which about 17,000 (5.5%) were called active. This list was built around the results that the source calls inconclusive (neither active nor inactive); the mix of calls is not that of the screen. The call rests on the fitted dose curve; in most records, active means well fitted inhibition curve with a large enough effect; inconclusive means small, poorly fitted or top-dose-only effect, or effect the other way; inactive means no such curve, though single readings can be large or run the other way. Potencies beside an inconclusive call are fits to weak or partial responses and may not hold up.
# Target: Nuclear receptor ROR-gamma (Mus musculus) (UniProt P51450)
# Test: qHTS for inhibitors of ROR gamma transcriptional activity; further: nearly all actives have a fitted effect of over 60% in size
# Settings: Drosophila S2 Gal4-RORgamma UAS-luciferase reporter, 20 h; activity change, negative = inhibition: at 53.6 µM (top of the series)
# Procedure, shortened: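 Compounds are pin-transferred onto Drosophila Schneider cells expressing a copper-inducible Gal4–ROR gamma transactivation domain fusion. After 1 hr, copper sulfate is added to 700 uM final; luciferase is read 20 hr later.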
# On the % scale 0 is the no-effect control and ±100 the full control effect; potency means the concentration at half of the fitted maximal effect.
SMILES,Potency,"activity change, negative = inhibition"
O=C(c1cc(-c2ccc(Cl)cc2)n(-c2cc(Cl)ccc2Cl)n1)N1CCOCC1,"inconclusive: 35.5 µM [inhibitor, single point]",–
O=C(Nc1nccs1)C1Cc2ccccc2CN1S(=O)(=O)c1ccc(F)cc1 (stereo not drawn),"inconclusive: 22.4 µM [inhibitor, single point]",–
CC(/C=C/c1ccco1)=N/NC(=O)c1ccc(C)nc1,"inconclusive: 15.8 µM [inhibitor, partial curve, poor fit]",–
COCc1c(Br)c(C)[nH]c(=O)c1C#N,–,inactive: 0.795%
Cc1cc(C(=O)NC2CCCC2)on1,"inconclusive: 0.141 µM [activator, single point]",–
N#CCCn1cc(C(=O)Nc2ccccc2Br)c(-c2cc3ccccc3o2)n1,"inconclusive: 35.5 µM [inhibitor, single point]",–
CC1Cc2ccccc2N1C(=O)c1cccnc1 (stereo not drawn),"inconclusive: 14.1 µM [activator, single point]",–
COC(=O)[C@@]1(Cc2ccc(OC)cc2)[C@H]2c3cc(C(=O)N(C)C)[nH]c3C[C@H]2CN1C(=O)c1ccccc1,"inconclusive: 12.6 µM [activator, partial curve, poor fit]",–
Cc1nc2sccn2c(=O)c1CCN1CCC(=C(c2ccc(F)cc2)c2ccc(F)cc2)CC1,"inconclusive: 25.1 µM [inhibitor, single point]",–
C=CC[n+]1c(/C=C2\C=Cc3cc(C)ccc3N2CC)ccc2ccccc21,"inconclusive: 8.91 µM [inhibitor, partial curve, poor fit]",–
COc1ccc(/C=N/N=C/c2c[nH]c(=O)c(C#N)c2Nc2ccccc2)cc1,"inconclusive: 15.8 µM [activator, single point]",–
CC1(C)CC(=O)C2=C(C1)c1c(ccc3ccccc13)NC2c1ccco1 (stereo not drawn),"inconclusive: 11.2 µM [activator, single point]",–
Cc1cccc(OCC(=O)N(Cc2ccco2)C2CCS(=O)(=O)C2)c1C (stereo not drawn),"inconclusive: 11.2 µM [activator, partial curve]",–
S=C1SCN(CC2CC2)CN1CC1CC1,active: 7.94 µM,–
O=C(CCSc1nccn1Cc1ccccc1)N1CCOCC1,"inconclusive: 35.5 µM [activator, single point]",–
O=C(NNC(=O)c1cccnc1SCc1cccc([N+](=O)[O-])c1)c1ccccn1,active: 3.55 µM,–
COc1cccc2cc(C(=O)NCCN3CCOCC3)c(=O)oc12,–,inactive: -3.04%
O=C(NCc1ccc2c(c1)OCO2)C(=O)NCC1CCCO1 (stereo not drawn),–,inactive: 0.887%
COc1cccc(-c2nnc(NC(=O)c3ccccc3Br)o2)c1,active: 5.01 µM,–
COc1ccc(Cc2[nH]n3c(=O)cc(C)nc3c2-c2ccccc2)cc1,active: 11.2 µM,–
Fc1ccc(NC(=S)NC2CCN(Cc3ccccc3)CC2)cc1,"inconclusive: 17.8 µM [inhibitor, single point]",–
Cc1ccc(O)c(N=CC2=C(O)c3ccccc3C2=O)c1,active: 3.98 µM,–
COc1ccc(OC)c(NC(=O)CCN2C(=O)c3cccc([N+](=O)[O-])c3C2=O)c1,"inconclusive: 0.891 µM [inhibitor, single point]",–
COc1ccc(-c2cc(C(=O)Nc3cc(C)n(Cc4ccc(Cl)cc4)n3)no2)cc1OC,–,inactive: -39.7%
CC(C)(C)c1ccc(OCc2cnc(Cl)s2)cc1,"inconclusive: 11.2 µM [activator, partial curve]",–

SMILES,Potency,"activity change, negative = inhibition"
CCN(CC)C(=O)C(=O)c1cccn1-c1cccc(-n2cccc2C(=O)C(=O)N(CC)CC)c1C#N,"inconclusive: 1.58 µM [inhibitor, partial curve]",–
CCOc1cc2c(cc1/C=C1/NC(=O)N(CC(=O)OC)C1=O)OCO2,–,inactive: 0.829%
O=C(CCCn1c(=O)[nH]c2ccccc2c1=O)NC1CCCCCC1,"inconclusive: 7.94 µM [activator, partial curve]",–
Cc1ccc(-n2c(COc3cccc(C)c3)n[nH]c2=S)cc1,"inconclusive: 0.794 µM [inhibitor, full curve]",–
Cc1ccc(C)c(C(=O)C(C)OC(=O)c2cccn2C)c1 (stereo not drawn),–,inactive: -26.5%
CCC(=O)Nc1ccc(Cl)c(NC(=S)NC(=O)c2cc3ccccc3o2)c1,"inconclusive: 14.1 µM [inhibitor, single point]",–
O=C(NCCCN1CCCC1=O)[C@H](CSCc1ccccc1)N1Cc2ccccc2C1=O,–,inactive: 31.9%
Cn1nnnc1SCC1=C(C(=O)O)N2C(=O)C(NC(=O)Cn3nc(C(F)F)cc3C3CC3)C2SC1 (stereo not drawn),–,inactive: 12.5%
O=C(COc1ccccc1C(=O)c1cnn(-c2ccccc2)c1)Nc1ccc2ccccc2c1,"inconclusive: 2.24 µM [activator, partial curve]",–
CS(=O)(=O)N1CCN(c2ccc(NC(=O)C(c3ccccc3)c3ccccc3)cc2)CC1,"inconclusive: 22.4 µM [activator, single point]",–
S=C(Nc1ccc(Br)cc1Cl)NN1CCOCC1,active: 3.55 µM,–
COC(=O)C1CCN(Cc2ccc(OCCCN3CCN(c4ccc([N+](=O)[O-])cc4)CC3)cc2)CC1,"inconclusive: 35.5 µM [inhibitor, single point]",–
O=C(CSc1nc(Nc2ccccc2)nc(N2CCOCC2)n1)Nc1cc(Cl)ccc1O,"inconclusive: 35.5 µM [inhibitor, single point]",–
O=c1c(C(c2ccc(Br)cc2)c2c(O)nc3n(c2=O)CCCS3)c(O)nc2n1CCCS2,–,inactive: -12.3%
CCOC(=O)c1c(NC(=S)NCc2ccccc2)sc2c1CCN(C(=O)OCC)C2,active: 2 µM,–
O=c1[nH]nc(SCc2nnc(-c3cccc(Cl)c3)o2)n1C1CCCCC1,"inconclusive: 17.8 µM [activator, partial curve]",–
Cc1cc(N2CCN(S(=O)(=O)c3ccccc3)CC2)c2ccccc2n1,"inconclusive: 31.6 µM [activator, single point]",–
COCCCNC(=O)C1CCC(CNS(=O)(=O)c2ccc3c(c2)CC(C)N3C(=O)C2CC2)CC1 (stereo not drawn),–,inactive: 10.3%
COc1ccc(NC(=O)CCCC(=O)OCC(=O)c2cccc(OC)c2)cc1,"inconclusive: 1.41 µM [inhibitor, full curve, poor fit]",–
CC(C)(C)c1ccc(OC(=O)c2cccnc2)cc1,"inconclusive: 0.005 µM [activator, full curve, poor fit]",–
O=C(CSc1ccc(Cl)cc1)Nc1cc(-c2nc3ncccc3o2)ccc1Cl,"inconclusive: 35.5 µM [inhibitor, single point]",–
CCn1cc(C(=O)NCc2ccc3c(c2)OCO3)c(=O)c2cc(S(=O)(=O)N3CCOCC3)ccc21,"inconclusive: 12.6 µM [activator, partial curve]",–
Cc1nonc1NC(=O)CSc1nc2ccccc2o1,active: 8.91 µM,–
CN(C(=O)c1ccco1)c1nc(-c2ccc(F)cc2)cs1,–,inactive: -8.7%
COc1ccccc1N1CCN(/N=C/C=C/c2ccccc2[N+](=O)[O-])CC1,–,inactive: -17.9%

SMILES,Potency,"activity change, negative = inhibition"
NC(=O)COC(=O)c1ccc2c(c1)S(=O)(=O)N=C1CCCCCN12,–,inactive: -0.864%
CCOC(=O)c1c(C)nc2c(c1-c1ccc(OC)cc1)C(=O)CC(C)(C)C2,–,inactive: 25%
CNC[C@H](Cc1ccccc1)NC[C@@H](Cc1cccc2ccccc12)NCCc1ccc(C)cc1,"inconclusive: 35.5 µM [inhibitor, single point]",–
c1ccc(-n2nnnc2Sc2n[nH]c(-c3ccncc3)n2)cc1,"inconclusive: 10 µM [inhibitor, partial curve]",–
COc1ccc(CCNCc2c(OC)ccc3ccccc23)cc1OC,–,inactive: 2.16%
CC(NC(=O)c1cc2sccc2n1C)c1ccc2c(c1)OCCO2 (stereo not drawn),–,inactive: 7.09%
CCOc1ccc(OCC(O)CN2CCc3ccccc3C2)cc1 (stereo not drawn),–,inactive: 21.4%
C=CCn1c(=O)/c(=C2/Sc3cc(OC)ccc3N2C)s/c1=C1\C(=O)N(CC)C(=S)N1C,"inconclusive: 15.8 µM [activator, single point]",–
CCCCOc1ccc(C(=O)Nc2ccc(CN3CCOCC3)cc2)cc1,"inconclusive: 4.47 µM [activator, full curve]",–
O=C(O)c1ccc(/C=N/Nc2ncc(Cl)cc2Cl)cc1,–,inactive: 26.3%
C=C(C)COc1ccc(-c2nc(N)ncc2Oc2ccc(OC)cc2)c(O)c1,–,inactive: 9.54%
Cc1cc(C)c(C(N)=O)c(Nc2cccc3ccccc23)n1,active: 2.82 µM,–
CNC(=O)COC(=O)[C@@H](Nc1ccc(S(=O)(=O)N2CCOCC2)cc1[N+](=O)[O-])C(C)C,–,inactive: 3.64%
O=C(CCC1CCCN(C(=O)Cn2cnnn2)C1)NCc1ccccc1F (stereo not drawn),–,inactive: 11.8%
CC(NC(=S)NCCCN1CCOCC1)C1CC2CCC1C2 (stereo not drawn),active: 5.62 µM,–
CCCNC(=O)c1ccc(COc2ccc(Cl)cc2)o1,"inconclusive: 31.6 µM [activator, single point]",–
CCCCNC(=O)CCC(=O)Nc1ncc(-c2ccc(C)cc2)n1C,active: 2 µM,–
Cc1ccc(S(=O)(=O)N2CCCC(c3nc(-c4ccc(C)o4)no3)C2)cc1 (stereo not drawn),–,inactive: 36.4%
COc1cccc(C(C(=O)NCC2CCCO2)N(C(=O)Cn2nnc3ccccc32)c2ccc(NC(C)=O)cc2)c1OC (stereo not drawn),–,inactive: -1.91%
CCn1ncc(/C=N\NC(=O)c2cc(-c3ccc(C)cc3C)nc3ccccc23)c1C,"inconclusive: 35.5 µM [inhibitor, single point]",–
Cn1c(CN2CCOCC2)nc2cc(NC(=O)c3ccc(Cl)cc3)ccc21,"inconclusive: 0.0447 µM [activator, full curve, poor fit]",–
COC(=O)c1ccc(COC(=O)Cc2n[nH]c(=O)c3ccccc23)cc1,"inconclusive: 11.2 µM [activator, partial curve, poor fit]",–
Cc1ncoc1C(=O)N1CCCC(C(=O)c2ccc(-c3ccccc3)c(F)c2)C1 (stereo not drawn),"inconclusive: 35.5 µM [activator, single point]",–

# A different layout for part of the listing above.
SMILES | Potency | activity change, negative = inhibition
C=CCn1c(=O)/c(=C2/Sc3cc(OC)ccc3N2C)s/c1=C1\C(=O)N(CC)C(=S)N1C | inconclusive: 15.8 µM [activator, single point] | –
CCCNC(=O)c1ccc(COc2ccc(Cl)cc2)o1 | inconclusive: 31.6 µM [activator, single point] | –
Cn1c(CN2CCOCC2)nc2cc(NC(=O)c3ccc(Cl)cc3)ccc21 | inconclusive: 0.0447 µM [activator, full curve, poor fit] | –
